# Data published in the supplement of paper PMC11546906.
# Structures can show the parent of a compound that is named as a salt. This is one part of the list. Single values are uncertain here, since repeats match poorly.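 FDA-approved drugs were each paired with colistin at one-eighth its MIC and screened against a multidrug-resistant, mcr-1-positive clinical E. coli isolate, with OD600 read after 24 h. Drug-free bacteria served as growth control, plain broth as blank. Combinations were active if OD600 dropped below 0.2.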
# Test system: Escherichia coli 42 (mcr-1-positive clinical isolate)
# Experiment: OD600 after 24 h growth with compound plus colistin (absorbance units (OD600)); higher = more bacterial growth (less inhibition)
# Conditions: first compound 25 µM; colistin concentration 0.5 ug/mL; incubation time 24 h; 37 °C
row,Compound,OD600
1,CCN1CCN(Cc2ccc(Nc3ncc(F)c(-c4cc(F)c5nc(C)n(C(C)C)c5c4)n3)nc2)CC1 [Abemaciclib methanesulfonate] + CCC(C)CCCC(=O)N[C@@H](CCN)C(=O)N[C@H](C(=O)N[C@@H](CCN)C(=O)N[C@H]1CCNC(=O)[C@H]([C@@H](C)O)NC(=O)[C@H](CCN)NC(=O)[C@H](CCN)NC(=O)[C@H](CC(C)C)NC(=O)[C@@H](CC(C)C)NC(=O)[C@H](CCN)NC1=O)[C@@H](C)O [colistin],inactive: 0.917
2,CC/C(=C(\c1ccccc1)c1ccc(OCCN(C)C)cc1)c1ccccc1 [Tamoxifen Citrate] + CCC(C)CCCC(=O)N[C@@H](CCN)C(=O)N[C@H](C(=O)N[C@@H](CCN)C(=O)N[C@H]1CCNC(=O)[C@H]([C@@H](C)O)NC(=O)[C@H](CCN)NC(=O)[C@H](CCN)NC(=O)[C@H](CC(C)C)NC(=O)[C@@H](CC(C)C)NC(=O)[C@H](CCN)NC1=O)[C@@H](C)O [colistin],active: 0.041
3,OC(CCCN1CCCCC1)(c1ccccc1)c1ccccc1 [Diphenidol hydrochloride] + CCC(C)CCCC(=O)N[C@@H](CCN)C(=O)N[C@H](C(=O)N[C@@H](CCN)C(=O)N[C@H]1CCNC(=O)[C@H]([C@@H](C)O)NC(=O)[C@H](CCN)NC(=O)[C@H](CCN)NC(=O)[C@H](CC(C)C)NC(=O)[C@@H](CC(C)C)NC(=O)[C@H](CCN)NC1=O)[C@@H](C)O [colistin],inactive: 0.837
4,Nc1nc(Cl)nc2c1ncn2[C@@H]1O[C@H](CO)[C@@H](O)[C@@H]1F [Clofarabine] + CCC(C)CCCC(=O)N[C@@H](CCN)C(=O)N[C@H](C(=O)N[C@@H](CCN)C(=O)N[C@H]1CCNC(=O)[C@H]([C@@H](C)O)NC(=O)[C@H](CCN)NC(=O)[C@H](CCN)NC(=O)[C@H](CC(C)C)NC(=O)[C@@H](CC(C)C)NC(=O)[C@H](CCN)NC1=O)[C@@H](C)O [colistin],inactive: 0.795
5,CCOc1cc2ncc(C#N)c(Nc3ccc(OCc4ccccn4)c(Cl)c3)c2cc1NC(=O)/C=C/CN(C)C [Neratinib] + CCC(C)CCCC(=O)N[C@@H](CCN)C(=O)N[C@H](C(=O)N[C@@H](CCN)C(=O)N[C@H]1CCNC(=O)[C@H]([C@@H](C)O)NC(=O)[C@H](CCN)NC(=O)[C@H](CCN)NC(=O)[C@H](CC(C)C)NC(=O)[C@@H](CC(C)C)NC(=O)[C@H](CCN)NC1=O)[C@@H](C)O [colistin],inactive: 0.779
6,CN(C)CCOC(c1ccccc1)c1ccccc1 [Diphenhydramine hydrochloride] + CCC(C)CCCC(=O)N[C@@H](CCN)C(=O)N[C@H](C(=O)N[C@@H](CCN)C(=O)N[C@H]1CCNC(=O)[C@H]([C@@H](C)O)NC(=O)[C@H](CCN)NC(=O)[C@H](CCN)NC(=O)[C@H](CC(C)C)NC(=O)[C@@H](CC(C)C)NC(=O)[C@H](CCN)NC1=O)[C@@H](C)O [colistin],inactive: 1.06
7,Nc1nnc(-c2cccc(Cl)c2Cl)c(N)n1 [Lamotrigine] + CCC(C)CCCC(=O)N[C@@H](CCN)C(=O)N[C@H](C(=O)N[C@@H](CCN)C(=O)N[C@H]1CCNC(=O)[C@H]([C@@H](C)O)NC(=O)[C@H](CCN)NC(=O)[C@H](CCN)NC(=O)[C@H](CC(C)C)NC(=O)[C@@H](CC(C)C)NC(=O)[C@H](CCN)NC1=O)[C@@H](C)O [colistin],inactive: 1.11
8,Nc1ccc(S(=O)(=O)Nc2ncccn2)cc1 [Sulfadiazine] + CCC(C)CCCC(=O)N[C@@H](CCN)C(=O)N[C@H](C(=O)N[C@@H](CCN)C(=O)N[C@H]1CCNC(=O)[C@H]([C@@H](C)O)NC(=O)[C@H](CCN)NC(=O)[C@H](CCN)NC(=O)[C@H](CC(C)C)NC(=O)[C@@H](CC(C)C)NC(=O)[C@H](CCN)NC1=O)[C@@H](C)O [colistin],inactive: 1.06
9,C#CC1(O)CC[C@H]2[C@@H]3CCC4=CC(=O)CC[C@@H]4[C@H]3CC[C@@]21CC (some centres undefined) [Norgestrel] + CCC(C)CCCC(=O)N[C@@H](CCN)C(=O)N[C@H](C(=O)N[C@@H](CCN)C(=O)N[C@H]1CCNC(=O)[C@H]([C@@H](C)O)NC(=O)[C@H](CCN)NC(=O)[C@H](CCN)NC(=O)[C@H](CC(C)C)NC(=O)[C@@H](CC(C)C)NC(=O)[C@H](CCN)NC1=O)[C@@H](C)O [colistin],inactive: 1
10,Oc1c(I)cc(Cl)c2cccnc12 [Clioquinol] + CCC(C)CCCC(=O)N[C@@H](CCN)C(=O)N[C@H](C(=O)N[C@@H](CCN)C(=O)N[C@H]1CCNC(=O)[C@H]([C@@H](C)O)NC(=O)[C@H](CCN)NC(=O)[C@H](CCN)NC(=O)[C@H](CC(C)C)NC(=O)[C@@H](CC(C)C)NC(=O)[C@H](CCN)NC1=O)[C@@H](C)O [colistin],inactive: 0.975
11,C[C@@H](O)[C@H]1C(=O)N2C(C(=O)O)=C(S[C@@H]3CN[C@H](CNS(N)(=O)=O)C3)[C@H](C)[C@H]12 [Doripenem monohydrate] + CCC(C)CCCC(=O)N[C@@H](CCN)C(=O)N[C@H](C(=O)N[C@@H](CCN)C(=O)N[C@H]1CCNC(=O)[C@H]([C@@H](C)O)NC(=O)[C@H](CCN)NC(=O)[C@H](CCN)NC(=O)[C@H](CC(C)C)NC(=O)[C@@H](CC(C)C)NC(=O)[C@H](CCN)NC1=O)[C@@H](C)O [colistin],inactive: 0.831
12,CN(C)CCCN1c2ccccc2CCc2ccc(Cl)cc21 [Clomipramine hydrochloride] + CCC(C)CCCC(=O)N[C@@H](CCN)C(=O)N[C@H](C(=O)N[C@@H](CCN)C(=O)N[C@H]1CCNC(=O)[C@H]([C@@H](C)O)NC(=O)[C@H](CCN)NC(=O)[C@H](CCN)NC(=O)[C@H](CC(C)C)NC(=O)[C@@H](CC(C)C)NC(=O)[C@H](CCN)NC1=O)[C@@H](C)O [colistin],inactive: 1.06
13,CCc1cc2c(cc1CC)CC(NC[C@H](O)c1ccc(O)c3[nH]c(=O)ccc13)C2 [Indacaterol maleate] + CCC(C)CCCC(=O)N[C@@H](CCN)C(=O)N[C@H](C(=O)N[C@@H](CCN)C(=O)N[C@H]1CCNC(=O)[C@H]([C@@H](C)O)NC(=O)[C@H](CCN)NC(=O)[C@H](CCN)NC(=O)[C@H](CC(C)C)NC(=O)[C@@H](CC(C)C)NC(=O)[C@H](CCN)NC1=O)[C@@H](C)O [colistin],inactive: 1.03
14,O=C1CN(/N=C/c2ccc(-c3ccc([N+](=O)[O-])cc3)o2)C(=O)N1 [Dantrolene] + CCC(C)CCCC(=O)N[C@@H](CCN)C(=O)N[C@H](C(=O)N[C@@H](CCN)C(=O)N[C@H]1CCNC(=O)[C@H]([C@@H](C)O)NC(=O)[C@H](CCN)NC(=O)[C@H](CCN)NC(=O)[C@H](CC(C)C)NC(=O)[C@@H](CC(C)C)NC(=O)[C@H](CCN)NC1=O)[C@@H](C)O [colistin],inactive: 1.07
15,CC(C)c1nc(N(C)S(C)(=O)=O)nc(-c2ccc(F)cc2)c1/C=C/[C@@H](O)C[C@@H](O)CC(=O)O [Rosuvastatin] + CCC(C)CCCC(=O)N[C@@H](CCN)C(=O)N[C@H](C(=O)N[C@@H](CCN)C(=O)N[C@H]1CCNC(=O)[C@H]([C@@H](C)O)NC(=O)[C@H](CCN)NC(=O)[C@H](CCN)NC(=O)[C@H](CC(C)C)NC(=O)[C@@H](CC(C)C)NC(=O)[C@H](CCN)NC1=O)[C@@H](C)O [colistin],inactive: 1.01
16,CCN(CC)CCOc1ccc(C(=C(Cl)c2ccccc2)c2ccccc2)cc1 [Clomiphene citrate] + CCC(C)CCCC(=O)N[C@@H](CCN)C(=O)N[C@H](C(=O)N[C@@H](CCN)C(=O)N[C@H]1CCNC(=O)[C@H]([C@@H](C)O)NC(=O)[C@H](CCN)NC(=O)[C@H](CCN)NC(=O)[C@H](CC(C)C)NC(=O)[C@@H](CC(C)C)NC(=O)[C@H](CCN)NC1=O)[C@@H](C)O [colistin],active: 0.042
17,OCCOCCN1CCN(C2=Nc3ccccc3Sc3ccccc32)CC1 [Quetiapine hemifumarate] + CCC(C)CCCC(=O)N[C@@H](CCN)C(=O)N[C@H](C(=O)N[C@@H](CCN)C(=O)N[C@H]1CCNC(=O)[C@H]([C@@H](C)O)NC(=O)[C@H](CCN)NC(=O)[C@H](CCN)NC(=O)[C@H](CC(C)C)NC(=O)[C@@H](CC(C)C)NC(=O)[C@H](CCN)NC1=O)[C@@H](C)O [colistin],inactive: 0.815
18,CC[N+](CC)(CC)CCOc1cccc(OCC[N+](CC)(CC)CC)c1OCC[N+](CC)(CC)CC [Gallamine triethiodide] + CCC(C)CCCC(=O)N[C@@H](CCN)C(=O)N[C@H](C(=O)N[C@@H](CCN)C(=O)N[C@H]1CCNC(=O)[C@H]([C@@H](C)O)NC(=O)[C@H](CCN)NC(=O)[C@H](CCN)NC(=O)[C@H](CC(C)C)NC(=O)[C@@H](CC(C)C)NC(=O)[C@H](CCN)NC1=O)[C@@H](C)O [colistin],inactive: 1.07
19,CN(C/C=C/c1ccccc1)Cc1cccc2ccccc12 [Naftifine hydrochloride] + CCC(C)CCCC(=O)N[C@@H](CCN)C(=O)N[C@H](C(=O)N[C@@H](CCN)C(=O)N[C@H]1CCNC(=O)[C@H]([C@@H](C)O)NC(=O)[C@H](CCN)NC(=O)[C@H](CCN)NC(=O)[C@H](CC(C)C)NC(=O)[C@@H](CC(C)C)NC(=O)[C@H](CCN)NC1=O)[C@@H](C)O [colistin],inactive: 1.07

# Quoted from above, nos. 1–5
row,Compound,OD600
1,CCN1CCN(Cc2ccc(Nc3ncc(F)c(-c4cc(F)c5nc(C)n(C(C)C)c5c4)n3)nc2)CC1 [Abemaciclib methanesulfonate] + CCC(C)CCCC(=O)N[C@@H](CCN)C(=O)N[C@H](C(=O)N[C@@H](CCN)C(=O)N[C@H]1CCNC(=O)[C@H]([C@@H](C)O)NC(=O)[C@H](CCN)NC(=O)[C@H](CCN)NC(=O)[C@H](CC(C)C)NC(=O)[C@@H](CC(C)C)NC(=O)[C@H](CCN)NC1=O)[C@@H](C)O [colistin],inactive: 0.917
2,CC/C(=C(\c1ccccc1)c1ccc(OCCN(C)C)cc1)c1ccccc1 [Tamoxifen Citrate] + CCC(C)CCCC(=O)N[C@@H](CCN)C(=O)N[C@H](C(=O)N[C@@H](CCN)C(=O)N[C@H]1CCNC(=O)[C@H]([C@@H](C)O)NC(=O)[C@H](CCN)NC(=O)[C@H](CCN)NC(=O)[C@H](CC(C)C)NC(=O)[C@@H](CC(C)C)NC(=O)[C@H](CCN)NC1=O)[C@@H](C)O [colistin],active: 0.041
3,OC(CCCN1CCCCC1)(c1ccccc1)c1ccccc1 [Diphenidol hydrochloride] + CCC(C)CCCC(=O)N[C@@H](CCN)C(=O)N[C@H](C(=O)N[C@@H](CCN)C(=O)N[C@H]1CCNC(=O)[C@H]([C@@H](C)O)NC(=O)[C@H](CCN)NC(=O)[C@H](CCN)NC(=O)[C@H](CC(C)C)NC(=O)[C@@H](CC(C)C)NC(=O)[C@H](CCN)NC1=O)[C@@H](C)O [colistin],inactive: 0.837
4,Nc1nc(Cl)nc2c1ncn2[C@@H]1O[C@H](CO)[C@@H](O)[C@@H]1F [Clofarabine] + CCC(C)CCCC(=O)N[C@@H](CCN)C(=O)N[C@H](C(=O)N[C@@H](CCN)C(=O)N[C@H]1CCNC(=O)[C@H]([C@@H](C)O)NC(=O)[C@H](CCN)NC(=O)[C@H](CCN)NC(=O)[C@H](CC(C)C)NC(=O)[C@@H](CC(C)C)NC(=O)[C@H](CCN)NC1=O)[C@@H](C)O [colistin],inactive: 0.795
5,CCOc1cc2ncc(C#N)c(Nc3ccc(OCc4ccccn4)c(Cl)c3)c2cc1NC(=O)/C=C/CN(C)C [Neratinib] + CCC(C)CCCC(=O)N[C@@H](CCN)C(=O)N[C@H](C(=O)N[C@@H](CCN)C(=O)N[C@H]1CCNC(=O)[C@H]([C@@H](C)O)NC(=O)[C@H](CCN)NC(=O)[C@H](CCN)NC(=O)[C@H](CC(C)C)NC(=O)[C@@H](CC(C)C)NC(=O)[C@H](CCN)NC1=O)[C@@H](C)O [colistin],inactive: 0.779
